Assay results from publication PMC3871820.
Results are given in words; binding and its absence hold for the method and conditions named.

By UniProt entry, the sequences of proteins in these tests, tags left out.
UniProt O64647: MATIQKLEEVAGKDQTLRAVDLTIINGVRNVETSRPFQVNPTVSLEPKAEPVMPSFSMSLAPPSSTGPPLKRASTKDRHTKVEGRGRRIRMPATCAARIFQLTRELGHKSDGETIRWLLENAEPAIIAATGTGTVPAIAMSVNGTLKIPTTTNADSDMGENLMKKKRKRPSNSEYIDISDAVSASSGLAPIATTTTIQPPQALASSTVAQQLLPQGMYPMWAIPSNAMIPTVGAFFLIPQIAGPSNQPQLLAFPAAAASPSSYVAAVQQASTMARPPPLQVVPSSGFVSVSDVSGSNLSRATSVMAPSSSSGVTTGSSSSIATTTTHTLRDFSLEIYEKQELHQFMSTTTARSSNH
UniProt Q9FTA2: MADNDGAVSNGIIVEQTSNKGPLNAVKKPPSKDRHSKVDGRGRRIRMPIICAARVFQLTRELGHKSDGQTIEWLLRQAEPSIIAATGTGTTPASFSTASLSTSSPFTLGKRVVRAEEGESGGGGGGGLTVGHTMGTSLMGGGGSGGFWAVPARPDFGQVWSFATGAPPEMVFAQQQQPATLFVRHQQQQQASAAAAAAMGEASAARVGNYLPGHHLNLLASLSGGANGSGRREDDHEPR
UniProt Q93Z00: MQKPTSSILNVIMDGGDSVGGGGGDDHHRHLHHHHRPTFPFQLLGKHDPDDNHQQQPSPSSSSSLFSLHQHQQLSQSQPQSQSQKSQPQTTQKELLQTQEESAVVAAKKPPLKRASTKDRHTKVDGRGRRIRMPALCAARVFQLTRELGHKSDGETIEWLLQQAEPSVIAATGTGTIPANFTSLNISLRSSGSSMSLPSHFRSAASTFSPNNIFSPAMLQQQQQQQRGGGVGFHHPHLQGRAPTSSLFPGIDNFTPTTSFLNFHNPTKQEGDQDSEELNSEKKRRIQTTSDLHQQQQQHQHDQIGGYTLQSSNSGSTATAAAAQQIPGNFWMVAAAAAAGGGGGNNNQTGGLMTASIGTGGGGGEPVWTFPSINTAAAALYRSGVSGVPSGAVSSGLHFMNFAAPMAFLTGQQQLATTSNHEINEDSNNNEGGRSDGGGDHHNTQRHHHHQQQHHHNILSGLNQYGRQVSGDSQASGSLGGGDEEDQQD
UniProt Q9C7G4: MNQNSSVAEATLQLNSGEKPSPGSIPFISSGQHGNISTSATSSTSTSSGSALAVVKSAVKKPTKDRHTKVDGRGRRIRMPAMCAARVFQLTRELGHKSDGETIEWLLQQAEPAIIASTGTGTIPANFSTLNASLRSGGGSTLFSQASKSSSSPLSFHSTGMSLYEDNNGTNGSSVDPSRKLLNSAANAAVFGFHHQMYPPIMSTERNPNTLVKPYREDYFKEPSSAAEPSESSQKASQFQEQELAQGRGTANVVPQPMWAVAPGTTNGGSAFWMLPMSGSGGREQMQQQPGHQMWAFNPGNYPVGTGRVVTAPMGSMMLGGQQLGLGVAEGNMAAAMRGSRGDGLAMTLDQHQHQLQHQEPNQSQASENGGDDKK
UniProt Q9FMX2: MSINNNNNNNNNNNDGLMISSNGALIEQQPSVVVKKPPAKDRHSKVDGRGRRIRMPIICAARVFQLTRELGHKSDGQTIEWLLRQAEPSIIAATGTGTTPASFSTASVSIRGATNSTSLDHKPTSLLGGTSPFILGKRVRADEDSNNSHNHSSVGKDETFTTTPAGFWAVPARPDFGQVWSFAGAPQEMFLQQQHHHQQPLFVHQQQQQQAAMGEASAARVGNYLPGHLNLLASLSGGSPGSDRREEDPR
UniProt Q9C518: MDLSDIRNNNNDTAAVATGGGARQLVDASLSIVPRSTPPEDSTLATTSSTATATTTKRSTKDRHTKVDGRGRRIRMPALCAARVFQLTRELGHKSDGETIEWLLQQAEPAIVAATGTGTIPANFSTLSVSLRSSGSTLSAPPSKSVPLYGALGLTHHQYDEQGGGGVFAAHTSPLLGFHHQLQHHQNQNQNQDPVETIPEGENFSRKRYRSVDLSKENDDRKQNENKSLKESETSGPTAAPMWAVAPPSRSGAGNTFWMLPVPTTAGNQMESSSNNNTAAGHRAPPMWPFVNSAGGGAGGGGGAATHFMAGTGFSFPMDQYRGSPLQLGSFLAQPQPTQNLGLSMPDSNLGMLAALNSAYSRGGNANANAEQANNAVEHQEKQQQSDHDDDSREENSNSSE
UniProt Q9LQF0: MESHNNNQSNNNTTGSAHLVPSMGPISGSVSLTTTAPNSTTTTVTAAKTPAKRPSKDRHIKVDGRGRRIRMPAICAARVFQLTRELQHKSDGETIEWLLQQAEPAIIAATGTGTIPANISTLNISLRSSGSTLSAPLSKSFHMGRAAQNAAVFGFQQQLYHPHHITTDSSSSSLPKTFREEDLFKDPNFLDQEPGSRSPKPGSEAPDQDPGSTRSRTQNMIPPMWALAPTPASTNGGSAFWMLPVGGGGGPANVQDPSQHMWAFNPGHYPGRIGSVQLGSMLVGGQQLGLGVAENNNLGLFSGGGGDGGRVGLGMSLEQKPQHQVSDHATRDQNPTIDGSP

Tests used:
Experiment in all cases: two-hybrid; matrix-based GAL4 yeast two-hybrid by mating (baits in PJ69-4alpha, preys in PJ69-4a); selection on SD-Leu-Trp-Ade or SD-Leu-Trp-His with 5 and 10 mM 3-amino-1,2,4-triazole; scored after 5 days at 30 °C; BD baits of TCP1, 2, 4, 10, 12, 18, 20 and 24 excluded for auto-activation; positive only if reproducible with at least two selection markers
[1] = molecular target: TCP9 (Arabidopsis thaliana) (UniProt O64647)
[2] = molecular target: T1, TCP6 (Arabidopsis thaliana) (UniProt Q9FLM6)
T1 sequence: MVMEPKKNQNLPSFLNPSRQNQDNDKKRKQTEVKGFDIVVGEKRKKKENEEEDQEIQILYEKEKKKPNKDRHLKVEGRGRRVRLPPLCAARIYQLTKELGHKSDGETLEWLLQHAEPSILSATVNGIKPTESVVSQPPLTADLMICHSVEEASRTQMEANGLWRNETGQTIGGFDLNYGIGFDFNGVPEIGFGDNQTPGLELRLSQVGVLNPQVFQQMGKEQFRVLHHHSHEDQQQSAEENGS

[3] = molecular target: TCP15 (Arabidopsis thaliana) (UniProt Q9C9L2)
[4] = molecular target: TCP21 (Arabidopsis thaliana) (UniProt Q9FTA2)
[5] = molecular target: TCP14 (Arabidopsis thaliana) (UniProt Q93Z00)
[6] = molecular target: TCP22 (Arabidopsis thaliana) (UniProt Q9C7G4)
[7] = molecular target: TCP7 (Arabidopsis thaliana) (UniProt Q9FMX2)
[8] = molecular target: TCP8 (Arabidopsis thaliana) (UniProt Q9C518)
[9] = molecular target: T2, TCP5 (Arabidopsis thaliana) (UniProt Q9FME3)
T2 sequence: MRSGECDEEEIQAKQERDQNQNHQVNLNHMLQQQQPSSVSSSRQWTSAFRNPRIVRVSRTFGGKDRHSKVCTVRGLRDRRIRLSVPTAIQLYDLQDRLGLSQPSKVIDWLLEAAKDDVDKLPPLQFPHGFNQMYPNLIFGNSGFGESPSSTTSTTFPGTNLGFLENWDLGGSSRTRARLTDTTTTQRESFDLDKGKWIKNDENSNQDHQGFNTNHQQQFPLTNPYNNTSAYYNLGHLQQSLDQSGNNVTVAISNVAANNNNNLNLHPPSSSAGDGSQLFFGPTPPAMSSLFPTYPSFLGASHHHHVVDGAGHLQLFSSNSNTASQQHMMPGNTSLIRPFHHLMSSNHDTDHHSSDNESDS

[10] = molecular target: TCP23 (Arabidopsis thaliana) (UniProt Q9LQF0)

Measured: binding

B1: TCP18 (protein, UniProt A1YKT1 1-433)
chain: MNNNIFSTTTTINDDYMLFPYNDHYSSQPLLPFSPSSSINDILIHSTSNTSNNHLDHHHQFQQPSPFSHFEFAPDCALLTSFHPENNGHDDNQTIPNDNHHPSLHFPLNNTIVEQPTEPSETINLIEDSQRISTSQDPKMKKAKKPSRTDRHSKIKTAKGTRDRRMRLSLDVAKELFGLQDMLGFDKASKTVEWLLTQAKPEIIKIATTLSHHGCFSSGDESHIRPVLGSMDTSSDLCELASMWTVDDRGSNTNTTETRGNKVDGRSMRGKRKRPEPRTPILKKLSKEERAKARERAKGRTMEKMMMKMKGRSQLVKVVEEDAHDHGEIIKNNNRSQVNRSSFEMTHCEDKIEELCKNDRFAVCNEFIMNKKDHISNESYDLVNYKPNSSFPVINHHRSQGAANSIEQHQFTDLHYSFGAKPRDLMHNYQNMY
no binding: [1] | [2] | [3] | [4] | [5] | [6] | [7] | [8] | [9] | [10]

B2: TCP12 (protein, UniProt A0AQW4 1-356)
chain: MFPSLDTNGYDLFDPFIPHQTTMFPSFITHIQSPNSHHHYSSPSFPFSSDFLESFDESFLINQFLLQQQDVAANVVESPWKFCKKLELKKKNEKCVDGSTSQEVQWRRTVKKRDRHSKICTAQGPRDRRMRLSLQIARKFFDLQDMLGFDKASKTIEWLFSKSKTSIKQLKERVAASEGGGKDEHLQVDEKEKDETLKLRVSKRRTKTMESSFKTKESRERARKRARERTMAKMKMRLFETSETISDPHQETREIKITNGVQLLEKENKEQEWSNTNDVHMVEYQMDSVSIIEKFLGLTSDSSSSSIFGDSEECYTSLSSVRGMSTPREHNTTSIATVDEEKSPISSFSLYDYLCY
no binding: [1] | [2] | [3] | [4] | [5] | [6] | [7] | [8] | [9] | [10]

B3: TCP1 (protein, UniProt Q9FYG7 1-359)
chain: MSSSTNDYNDGNNNGVYPLSLYLSSLSGHQDIIHNPYNHQLKASPGHMVSAVPESLIDYMAFKSNNVVNQQGFEFPEVSKEIKKVVKKDRHSKIQTAQGIRDRRVRLSIGIARQFFDLQDMLGFDKASKTLDWLLKKSRKAIKEVVQAKNLNNDDEDFGNIGGDVEQEEEKEEDDNGDKSFVYGLSPGYGEEEVVCEATKAGIRKKKSELRNISSKGLGAKARGKAKERTKEMMAYDNPETASDITQSEIMDPFKRSIVFNEGEDMTHLFYKEPIEEFDNQESILTNMTLPTKMGQSYNQNNGILMLVDQSSSSNYNTFLPQNLDYSYDQNPFHDQTLYVVTDKNFPKGKVWIQDSFVN
no binding: [1] | [2] | [3] | [4] | [5] | [6] | [7] | [8] | [9] | [10]
